These are yes or no findings as the source states them, for the method shown. Some binding calls cover weakened binding; strength is not graded here.
Experiments:
[1] = biological target: MCU amino-terminal domain (MCU-NTD), MCU residues 72-189 (human) (UniProt Q8NE86); assay: SEC-MALS; as a1 at 3 mg/mL, with 5 mM CaCl2; both purified
[2] = biological target: MCU amino-terminal domain (MCU-NTD), MCU residues 72-189 (human) (UniProt Q8NE86); assay: SEC-MALS; Superdex 200 Increase 10/300 GL, 100 uL injections, 20 mM Tris (pH 8.5), 150 mM NaCl, 1 mM DTT, 10°C; MCUb-NTD at 2, 3, 4 mg/mL, MCU-NTD at 3 mg/mL, mix of 3 mg/mL each (~1:1 molar); ~20x dilution on the column; fractions on SDS-PAGE; no divalent cations; both purified
[3] = biological target: MCU amino-terminal domain (MCU-NTD), MCU residues 72-189 (human) (UniProt Q8NE86); assay: cross-linking; 1 mM BS-3, 90 min, 20 mM HEPES (pH 8.4), 150 mM NaCl, 1 mM DTT, ambient temperature; proteins at 67.5 uM, mix with 67.5 uM or 33.8 uM of each; SDS-PAGE, Coomassie; both purified
[4] = biological target: MCU amino-terminal domain (MCU-NTD), MCU residues 72-189 (human) (UniProt Q8NE86); assay: SEC-MALS; as a1 at 3 mg/mL, with 5 mM MgCl2; both purified
[5] = biological target: MCU amino-terminal domain (MCU-NTD), MCU residues 72-189 (human) (UniProt Q8NE86); assay: dynamic light scattering; MCUb-NTD, MCU-NTD and the mix at 67.5 uM total protein; buffer and temperature differ from the first DLS experiment; both purified

Chains of the proteins cited; added tags and fusions are not shown. Residues count along the entry.
UniProt Q8NE86, residues 72-189: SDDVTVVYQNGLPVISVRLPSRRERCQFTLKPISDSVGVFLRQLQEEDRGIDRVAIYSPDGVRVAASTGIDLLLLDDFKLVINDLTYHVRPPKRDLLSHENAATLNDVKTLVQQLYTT

Measured: binding

B1: MCUb amino-terminal domain (MCUb-NTD), MCUb residues 58-159 (domain or fragment, human, UniProt Q9NWR8 58-159, looked up)
chain: DEITVIYRHGLPLVTLTLPSRKERCQFVVKPMLSTVGSFLQDLQNEDKGIKTAAIFTADGNMISASTLMDILLMNDFKLVINKIAYDVQCPKREKPSNEHTA
notes: MCU dominant negative beta subunit (MCUb), Homo sapiens, GenBank NP_060388.2, residues 58-159 (amino-terminal domain); Cloned into pET-28a by NheI and XhoI; printed as 6xHis-MCUb_(58-159); theoretical monomer mass 12.0098 kDa and 107 expected backbone amides are printed, so a few vector residues probably remain after thrombin cleavage (surmise); also called MCUb_(58-159); 15N-MCUb-NTD; source: E. …
binds: all assays above
